The values below come from patent US20230303695A1.

No constants are given. Whether binding was seen depends on the method and setting. Some entries that bind do so weakly or less than the wild type.

The target of assay [1] is T1, D1 domain of IGSF8 on CT26 cells (human) (UniProt Q969P0).
T1 sequence (looked up): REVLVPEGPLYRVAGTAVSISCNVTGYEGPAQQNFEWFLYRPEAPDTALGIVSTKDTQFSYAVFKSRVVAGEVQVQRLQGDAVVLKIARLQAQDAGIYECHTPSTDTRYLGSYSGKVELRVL
Kind of assay: FACS on CT26 cells (FIGS. 21 and 22).

The target in assay [2] is T1, D1 domain of IGSF8 on CT26 cells (human). Kind of assay: FACS, single antibody dose, CT26 cells expressing IGSF8-D1.
For assay [3], the target named is T2, cynomolgus monkey IGSF8 expressed on CT26 cells (cynomolgus monkey).
T2 sequence: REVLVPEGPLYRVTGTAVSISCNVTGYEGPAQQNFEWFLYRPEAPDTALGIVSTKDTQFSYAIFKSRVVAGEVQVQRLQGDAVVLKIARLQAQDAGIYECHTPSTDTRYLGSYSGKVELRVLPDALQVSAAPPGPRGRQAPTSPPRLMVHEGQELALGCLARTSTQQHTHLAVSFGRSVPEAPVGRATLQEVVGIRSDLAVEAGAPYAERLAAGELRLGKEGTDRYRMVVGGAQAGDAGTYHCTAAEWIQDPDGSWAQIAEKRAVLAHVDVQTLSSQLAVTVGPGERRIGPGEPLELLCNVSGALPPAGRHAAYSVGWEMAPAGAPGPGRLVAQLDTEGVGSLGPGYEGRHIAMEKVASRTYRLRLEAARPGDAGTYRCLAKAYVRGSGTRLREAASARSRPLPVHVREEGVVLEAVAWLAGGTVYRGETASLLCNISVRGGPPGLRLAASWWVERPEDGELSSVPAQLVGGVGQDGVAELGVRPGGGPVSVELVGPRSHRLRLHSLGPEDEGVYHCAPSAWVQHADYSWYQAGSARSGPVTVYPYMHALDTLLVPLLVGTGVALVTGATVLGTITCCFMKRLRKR
Kind of assay: FACS on CT26 cells expressing cynomolgus monkey IGSF8, anti-human Fc-PE.

The target is the same in assay [4]. The assay can be described thus: FACS on CT26 cells expressing IGSF8.
The target in assay [5] is IGSF8 protein without D1 domain (human) (UniProt Q969P0). The assay can be described thus: FACS, single antibody dose, IGSF8-D24 (D2-D4 with TM, no D1) expressed on CT26 cells.

B1: Antibody C32 (B104) (antibody, IgG1, V domains shown)
VH: QVQLVQSGAEVKRPGASVKVSCKASGYTFTNDIIHWVRQAPGQRLEWMGWINAGYGNTQYSQNFQDRVSITRDTSASTAYMELISLRSEDTAVYYCARGYYRSPTWFDWWGQGTLVTVSS
VL: ETTLTQSPSSLSASVGDRVTITCRASQSISSWLAWYQQKPGKAPKLLIYKASSLESGVPSRFSGSGSGTEFTLTISSLQPDDFATYYCQQYGDYPYTFGQGTKLEIKR
For the molecule B1, the binding entry in assay [1] and in assay [2] was “binds” each time.

B2: Antibody C38 (2B4) (antibody, V domains shown)
VH: EVQLVESGGGLEQPGGSLRLSCAGSGFTFRDYAMTWVRQAPGKGLEWVSSISGSGGNTYYADSVKGRFTISRDNSKNTLYLQMNSLRAEDTAIYYCARGEYSSGWPSWFDPWGQGTLVTVSS
VL: EIVLTQSPSSLSASVGDRVTISCRASRTVGTFLNWYQQRPGKPPQALILGVSILEGGVSSRFSGAGSGTEFSLTISSLQPEDIGTYYCQQSHDVPRTFGQGTKVDLRR
As for B2, the binding result in assay [1] and in assay [2] was “binds” throughout.

B3: L2-01 (antibody, V domains shown)
VH: EVQLVESGGGLEQPGGSLRLSCAGSGFTFRDYAMTWVRQAPGKGLEWVSSISGSGGNTYYADSVKGRFTISRDNSKNTLYLQMNSLRAEDTAIYYCARGEYSSGWPSWFDPWGQGTLVTVSS
VL: EIVLTQSPSSLSASVGDRVTISCRASRTVGTFLNWYQQRPGKPPQALILGVSILEGGVSSRFSGAGSGTEFSLTISSLQPEDIGTYYCQQSHDVPRTFGQGTKVDLR
As to B3, the binding entry in assay [3] and in assay [4] was “binds” in each case.

B4: L2-10 (antibody, V domains shown)
VH: EVQLVESGGGLEQPGGSLRLSCAASGFTFRDYAMTWVRQAPGKGLEWVSSISGSGGSTYYADSVKGRFTISRDNSKNTLYLQMNSLRAEDTAIYYCARGEYSSGWPSWFDPWGQGTLVTVSS
VL: DIQMTQSPSSLSASVGDRVTITCRASRTVGTFLNWYQQKPGKAPKALILHTSILEGGVPSRFSGSGSGTDFTLTISSLQPEDIATYYCQQSHDVPRTFGQGTKVEIK
Regarding B4, the binding entry in assay [3] was “binds”.

B5: Antibody C36 (1B4) (antibody, V domains shown)
VH: EVQLLESGGGLVQPGGSLRLSCAASGFTFSSYAMSWVRQAPGKGLEWVSGITGSGGSTYYADSVKGRFTISRDNSKNTLYLQMNSLRAEDTAIYYCARGGALDIWGQGTMVTVSS
VL: DIQMTQSPSSLSASVGDRVTITCRASQVIHNYLAWYKQKPGQAPKLLIYSASSLQSGVPSRFSGSGSGTDFTLTISSLQPEDFATYYCQQSYSTPLTFGGGTKVEIKR
As to B5, the binding entry in assay [5], in assay [1] and in assay [2] was “binds” throughout.

B6: Antibody C30 (B34) (antibody, V domains shown)
VH: EVQLLESGGGLVQPGGSLRLSCAASGFTFSSYAMSWVRQAPGKGLEWVSGITGSGGSTYYADSVKGRFTISRDNSKNTLYLQMNSLRAEDTAVYYCARGRQVDKWGQGTLVTVSS
VL: DIMLTQSPSSLSASVGDRVTITCRASQSIHNYLNWIQQTPGKAPKLLVFAASTLQRGVPPRYSGRGSGTEFTLTISSLQPEDFATYYCQQSYTTPLTFGGGTKVEIRR
On to B6, for which the binding entry in assay [1] and in assay [2] was “binds” in each case.

B7: Antibody C37 (3F12) (antibody, V domains shown)
VH: EVQLVQSGGGLVKPGGSLRLSCAASGFTFSSYSMNWVRQAPGKGLEWVSSISSSSSYIYYADSVKGRFTISRDNAKNSLYLQMNSLRAEDTAVYYCAGRQYDFWSGWDWFDPWGQGTLVTVSS
VL: DIQLTQSPSSLSASVGDRVTITCRASQSISTYLNWYQQKPGKAPKLLIHDASILQSGVPSRFSGSGSGTDFTLTISSLQAEDFATYYCQQSYSTLPYTFGQGTKVEIK
For the molecule B7, the binding result in assay [5], in assay [1] and in assay [2] was “binds” each time.

B8: Antibody C31 (B46) (antibody, V domains shown)
VH: QVQLVESGGGVVQPGRSLRLSCAASGFTFSTYGMHWVRQAPGKGLEWVAVIWDDGSYKYYGDSVKGRFTISRDNSKNTLYLQMNSLRAEDTAVYYCAGGYSYSYMAIWGKGTTVTVSS
VL: DIVLTQSPSSLSASVGDRVTITCRASQGISTFLNWYQQKPGKAPKLLIYAASSLQSGVPSRFSGSGSGTDFTLTIGSLQPEDFASYFCQQTYSTQWTFGQGTKVEIK
Take B8: the binding result in assay [1] and in assay [2] was “binds” throughout.

B9: Antibody C33 (1C2) (antibody, V domains shown)
VH: QVQLVESGGGVVQPGRSLRLSCAASGFTFSTYGMHWVRQAPGKGLEWVAVIWDDGSYKYYGDSVKGRFTISRDNSKNTLYLQMNSLRAEDTAVYYCARDGSGWGYAFDIWGQGTMVTVSS
VL: DIQLTQSPSSLSASVGDRVTITCQASQDISEYLNWYQHKPGKAPNPLVFDAANLETGVPPRFSATGSGTDFSLTITSLQPEDFATYYCQQYDSFPYTFGQGTRLDIK
As to B9, the binding result in assay [1] and in assay [2] was “binds” each time.

B10: L1-01 (antibody, V domains shown)
VH: QVQLVESGGGVVQPGRSLRLSCAASGFTFSTYGMHWVRQAPGKGLEWVAVIWDDGSYKYYGDSVKGRFTISRDNSKNTLYLQMNSLRAEDTAVYYCARDGSGWGYAFDIWGQGTMVTVSS
VL: DIQLTQSPSSLSASVGDRVTITCQASQDISEYLNWYQHKPGKAPNPLVFDAANLETGVPPRFSATGSGTDFSLTITSLQPEDFATYYCQQYDSFPYTFGQGTRLDIK
Take B10: the binding result in assay [3] and in assay [4] was “binds” in each case.
